# Laboratory results from article doi:10.1101/538223.
# By UniProt entry, the sequences of proteins in these tests, tags left out. Where a name states a change or a piece, a line headed by the entry shows the natural chain unless it says otherwise.
# UniProt Q14161: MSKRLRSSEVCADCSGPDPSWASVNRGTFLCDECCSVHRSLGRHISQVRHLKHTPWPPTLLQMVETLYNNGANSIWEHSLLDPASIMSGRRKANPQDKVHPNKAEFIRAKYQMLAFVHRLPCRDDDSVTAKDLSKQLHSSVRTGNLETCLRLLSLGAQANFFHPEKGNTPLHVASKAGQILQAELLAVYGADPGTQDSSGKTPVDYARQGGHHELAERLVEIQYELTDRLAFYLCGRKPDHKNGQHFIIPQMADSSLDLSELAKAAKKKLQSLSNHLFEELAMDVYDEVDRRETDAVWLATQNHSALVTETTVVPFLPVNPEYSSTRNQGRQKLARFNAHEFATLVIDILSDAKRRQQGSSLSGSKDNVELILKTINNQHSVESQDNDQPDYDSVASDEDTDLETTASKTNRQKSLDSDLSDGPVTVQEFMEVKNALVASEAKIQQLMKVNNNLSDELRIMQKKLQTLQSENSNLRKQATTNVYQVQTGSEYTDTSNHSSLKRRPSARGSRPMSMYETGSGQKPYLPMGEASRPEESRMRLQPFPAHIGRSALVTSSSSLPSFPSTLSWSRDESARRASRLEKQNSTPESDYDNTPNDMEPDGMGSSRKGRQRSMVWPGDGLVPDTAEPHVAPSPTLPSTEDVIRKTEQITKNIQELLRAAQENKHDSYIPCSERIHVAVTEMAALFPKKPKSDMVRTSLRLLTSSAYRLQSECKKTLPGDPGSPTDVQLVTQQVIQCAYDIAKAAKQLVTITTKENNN
# UniProt Q14155: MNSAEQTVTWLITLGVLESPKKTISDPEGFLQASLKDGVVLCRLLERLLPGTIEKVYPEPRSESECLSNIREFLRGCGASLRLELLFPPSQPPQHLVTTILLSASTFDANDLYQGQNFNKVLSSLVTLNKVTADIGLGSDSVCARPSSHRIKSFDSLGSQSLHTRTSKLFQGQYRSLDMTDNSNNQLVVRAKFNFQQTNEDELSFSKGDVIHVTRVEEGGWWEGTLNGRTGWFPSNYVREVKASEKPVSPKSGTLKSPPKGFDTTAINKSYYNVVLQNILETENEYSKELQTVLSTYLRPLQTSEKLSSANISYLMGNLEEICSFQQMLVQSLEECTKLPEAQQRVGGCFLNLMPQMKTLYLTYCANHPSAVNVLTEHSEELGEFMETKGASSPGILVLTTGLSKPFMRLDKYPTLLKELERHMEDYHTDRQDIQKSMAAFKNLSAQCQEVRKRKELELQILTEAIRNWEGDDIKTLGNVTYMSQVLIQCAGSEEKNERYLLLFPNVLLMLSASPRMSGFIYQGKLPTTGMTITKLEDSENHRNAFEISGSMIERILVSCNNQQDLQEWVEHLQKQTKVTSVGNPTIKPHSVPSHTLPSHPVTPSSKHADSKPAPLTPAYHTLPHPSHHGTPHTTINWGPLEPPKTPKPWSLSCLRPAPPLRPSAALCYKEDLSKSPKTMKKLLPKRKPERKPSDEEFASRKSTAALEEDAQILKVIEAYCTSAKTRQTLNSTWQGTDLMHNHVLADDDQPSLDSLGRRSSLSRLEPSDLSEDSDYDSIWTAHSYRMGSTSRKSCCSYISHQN
# UniProt Q9Y2X7: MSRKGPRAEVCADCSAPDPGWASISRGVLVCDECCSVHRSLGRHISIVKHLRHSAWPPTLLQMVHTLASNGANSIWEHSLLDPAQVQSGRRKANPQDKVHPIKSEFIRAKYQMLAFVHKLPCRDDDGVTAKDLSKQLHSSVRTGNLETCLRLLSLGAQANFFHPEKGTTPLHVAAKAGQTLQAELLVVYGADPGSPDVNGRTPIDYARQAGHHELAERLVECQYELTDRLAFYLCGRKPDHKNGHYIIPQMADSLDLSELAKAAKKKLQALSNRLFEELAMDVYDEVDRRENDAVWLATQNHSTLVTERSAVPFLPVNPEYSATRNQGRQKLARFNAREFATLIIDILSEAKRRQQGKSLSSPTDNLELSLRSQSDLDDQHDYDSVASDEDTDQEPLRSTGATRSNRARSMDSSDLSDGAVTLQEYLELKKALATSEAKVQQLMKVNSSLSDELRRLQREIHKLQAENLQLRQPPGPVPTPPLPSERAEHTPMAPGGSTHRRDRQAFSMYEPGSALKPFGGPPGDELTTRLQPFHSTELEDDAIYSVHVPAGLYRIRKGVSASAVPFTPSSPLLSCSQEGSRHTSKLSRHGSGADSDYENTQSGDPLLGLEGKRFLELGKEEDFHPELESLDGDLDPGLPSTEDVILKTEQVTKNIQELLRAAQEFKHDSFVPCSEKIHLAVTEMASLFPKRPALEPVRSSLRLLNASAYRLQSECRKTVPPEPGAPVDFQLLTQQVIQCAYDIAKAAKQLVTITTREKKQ
# No constants are given. Whether binding was seen depends on the method and setting. Binding seen in cells or lysates may run through a third protein. Binding can be weak; no strength is given.
# Biological target: human GIT2(ΔBCE)/Flag (human) (UniProt Q14161)
# Experiment: co-IP
row,binding,Substance
1,binds weakly,"β-PIX, endogenous (from UniProt Q14155 1-803)"
2,no binding,"GIT1, endogenous (from UniProt Q9Y2X7 1-761)"
